Assay results: patent US20120121507A1 (NATIONAL RESEARCH COUNCIL OF CANADA, published 2012)
No constants are given. Whether binding was seen depends on the method and setting. Some results given as binding are weak or reduced against the parent protein; the word gives no strength.

Amino acid sequences for entries named in this document (tags omitted). Residues count along the entry.
UniProt P10909, residues 23-449: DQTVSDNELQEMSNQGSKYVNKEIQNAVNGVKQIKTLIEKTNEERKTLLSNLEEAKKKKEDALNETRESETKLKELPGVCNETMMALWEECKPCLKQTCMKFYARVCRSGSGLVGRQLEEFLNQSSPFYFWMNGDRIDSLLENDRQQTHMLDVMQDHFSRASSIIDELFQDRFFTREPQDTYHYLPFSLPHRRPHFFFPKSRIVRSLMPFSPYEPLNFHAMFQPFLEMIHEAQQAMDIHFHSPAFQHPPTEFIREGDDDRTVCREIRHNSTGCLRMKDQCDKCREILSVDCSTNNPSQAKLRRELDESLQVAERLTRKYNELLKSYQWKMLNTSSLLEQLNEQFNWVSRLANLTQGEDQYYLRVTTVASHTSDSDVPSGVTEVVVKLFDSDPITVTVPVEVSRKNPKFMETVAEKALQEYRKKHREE

Legend:
[1] = biological target: T1, recombinant human clusterin (human, UniProt P10909 23-449); experiment: STD-NMR
T1 construct: also called rhCLU; rh-clusterin

[2] = biological target: T1, recombinant human clusterin; experiment: SPR, summary of FIGS. 5-7
[3] = biological target: T1, recombinant human clusterin; experiment: STD-NMR, 0.15 mM peptide with rh-clusterin at about 1:30 protein:peptide
[4] = biological target: T1, recombinant human clusterin; experiment: STD-NMR, ~1:30 protein:peptide
[5] = biological target: T1, recombinant human clusterin; experiment: SPR
[6] = biological target: T1, recombinant human clusterin; experiment: SPR, rhCLU flowed over immobilized P3376
[7] = biological target: T1, recombinant human clusterin; experiment: SPR, rh-clusterin flowed over immobilized P3376R
[8] = biological target: T1, recombinant human clusterin; experiment: SPR, rh-clusterin 11 nM-1.4 µM over immobilized P3376R, curvilinear Scatchard plot
[9] = biological target: T1, recombinant human clusterin; experiment: SPR, rh-clusterin 11 nM-1.4 µM over immobilized P3375R, curvilinear Scatchard plot
[10] = biological target: T1, recombinant human clusterin; experiment: SPR, rh-clusterin flowed over immobilized P3375R
[11] = biological target: T1, recombinant human clusterin; experiment: STD-NMR, P3378 with and without rh-clusterin
[12] = biological target: T1, recombinant human clusterin; experiment: SPR, rh-clusterin alone flowed over immobilized P3378
[13] = biological target: T1, recombinant human clusterin; experiment: STD-NMR, 0.15 mM peptide with and without rh-clusterin at about 1:30 protein:peptide
[14] = biological target: T1, recombinant human clusterin; experiment: SPR, rhCLU flowed over immobilized P3378
[15] = biological target: T1, recombinant human clusterin; experiment: SPR, rh-clusterin preincubated with mAb 16B5 (ratio 1:1.7) flowed over immobilized P3378
[16] = biological target: T1, recombinant human clusterin; experiment: SPR, rhCLU flowed over immobilized P3375

Measured: binding

B1: P3376 synthetic peptide (SHALPLTWSTAA with C-terminal SGSGC extension) (peptide)
peptide: SHALPLTWSTAASGSGC
notes: In SPR it was immobilised through the C-terminal Cys (thioether); In STD-NMR it was free in solution
binds: [1] | [2] | [3] | [4] | [5] | [6]

AWHTLASTSLAPSGSGC [P3376R, randomized version of P3376 (…)]
binds: [7] | [8]

LSLYHTNTQFWQSGSGC (Immobilised on the SPR chip) [P3375R, randomized version of P3375 (LSLYHTNTQFWQSGSGC)]
binds: [9] | [10]

B2: P3378 synthetic peptide (HPLSKHPYWSQP with C-terminal SGSGC extension) (peptide)
peptide: HPLSKHPYWSQPSGSGC
notes: Synthesised by Fmoc chemistry; In SPR it was immobilised on a CM5 chip by a thioether bond from the C-terminal Cys to maleimide; In STD-NMR it was free in solution
binds: [1] | [2] | [11] | [12] | [13] | [4] | [14] | [5] | [15]

B3: P3375 synthetic peptide (NTYWSQLLHFQT with C-terminal SGSGC extension) (peptide)
peptide: NTYWSQLLHFQTSGSGC
notes: as for B1
binds: [16] | [1] | [2] | [3] | [4] | [5]
